Laboratory results: paper PMC11148119
Results are given in words; binding and its absence hold for the method and conditions named. Some binding calls cover weakened binding; strength is not graded here. Where a sequence is shown, tags or fusion partners need not be part of it.

Molecular target: T1, Full-length rat TRPV2 with a C-terminal 1D4 tag, reconstituted into MSP2N2 nanodiscs (rat), Q9WUD2
T1 chain: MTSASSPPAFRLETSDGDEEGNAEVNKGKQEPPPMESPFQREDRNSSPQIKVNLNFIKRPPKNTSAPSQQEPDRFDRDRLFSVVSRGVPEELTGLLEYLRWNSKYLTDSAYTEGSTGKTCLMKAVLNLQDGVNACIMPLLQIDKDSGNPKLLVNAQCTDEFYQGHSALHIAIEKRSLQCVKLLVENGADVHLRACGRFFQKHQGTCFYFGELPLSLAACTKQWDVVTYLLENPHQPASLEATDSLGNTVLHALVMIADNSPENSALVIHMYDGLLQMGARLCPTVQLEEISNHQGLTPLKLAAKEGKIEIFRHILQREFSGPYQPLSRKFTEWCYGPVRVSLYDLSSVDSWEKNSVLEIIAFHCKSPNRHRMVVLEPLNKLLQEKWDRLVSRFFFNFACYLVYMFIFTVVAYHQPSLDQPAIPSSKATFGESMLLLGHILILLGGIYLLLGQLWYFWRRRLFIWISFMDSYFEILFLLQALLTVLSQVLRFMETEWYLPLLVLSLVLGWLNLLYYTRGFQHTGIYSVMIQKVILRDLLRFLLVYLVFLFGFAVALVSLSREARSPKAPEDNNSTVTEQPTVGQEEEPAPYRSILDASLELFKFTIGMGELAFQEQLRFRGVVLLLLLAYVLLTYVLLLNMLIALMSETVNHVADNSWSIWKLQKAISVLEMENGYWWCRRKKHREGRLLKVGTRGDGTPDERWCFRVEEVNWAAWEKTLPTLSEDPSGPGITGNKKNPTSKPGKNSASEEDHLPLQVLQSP
Assay: cryo-EM structure; rTRPV2 in MSP2N2/soy polar lipid nanodiscs; apo dataset at pH 8 (states Apo1, Apo2, Apo3) and dataset with 30 mM sodium acetate at final pH 5.0 (TRPV2_HOAc); grids prepared at 4 °C; maps refined with C4 symmetry; both purified
Details: remark: other sources report otherwise

B1: Full-length rat TRPV2 with a C-terminal 1D4 tag, reconstituted into MSP2N2 nanodiscs, Q9WUD2 1-761 (natural protein)
chain: T1 chain
binding: binds
